# Laboratory results from PubChem BioAssay AID504834 (National Center for Advancing Translational Sciences (NCATS), 2011).
# Values joined by “and” are separate entries in the source; they are usually repeats but may differ in a detail not shown here. Equal values may be shown once. In all, about 320,000 compounds went through this assay and about 22,000 (6.9%) were called active. This list was built around the results that the source calls inconclusive (neither active nor inactive); the mix of calls is not that of the screen. The call rests on the fitted dose curve; in most records, active means well fitted inhibition curve with a large enough effect; inconclusive means small, poorly fitted or top-dose-only effect, or another doubt; inactive means no such curve, though single readings can be large or run the other way. Potencies of inconclusive entries are doubtful fits and often do not repeat.
# Assay: Primary qHTS for delayed death inhibitors of the malarial parasite plastid, 96 hour incubation
# Details: P. falciparum luciferase reporter growth; series mostly up to 28.7 µM; activity change, negative = inhibition: at the top concentration
# How it was run: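 Erythrocytes infected with luciferase-expressing P. falciparum were dispensed at 2% hematocrit and 0.05% parasitemia (final), then incubated with compounds 96 hours at 37 C in 5% CO2. Luminescence after detection reagent addition reported growth.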
# On the % scale 0 is the no-effect control and ±100 the full control effect; potency means the concentration at half of the fitted maximal effect.
SMILES,Potency,"activity change, negative = inhibition"
O=C(CNCC1CCCO1)NCc1ccco1 (stereo not drawn),"inconclusive: 14.7 µM [inhibitor, single point]",
COC(=O)CCC(=O)OC1(C)C(=O)C2=CN(CCCCO)C(c3ccc(OC)cc3)=CC2=C(Br)C1=O (stereo not drawn),"inconclusive: 0.0029 µM [inhibitor, full curve, poor fit]",
CCOc1ccc(CN2CCN(C(=O)c3cccc4ccccc34)CC2)cc1,"inconclusive: 18.5 µM [inhibitor, single point]",
C#CCOC(=O)c1ccccc1C(=O)n1nnc2ccccc21,"inconclusive: 1.17 µM [inhibitor, partial curve, poor fit]",
CC(=O)Nc1ccccc1-c1nc2ccccc2nc1OCC(=O)c1ccc(Cl)cc1,"inconclusive: 13.1 µM [inhibitor, single point]",
CC(=O)Nc1cc(-c2ccccc2)ccc1O,,inactive: 11.3%
CC(Oc1cccc(Cl)c1)C(=O)Nc1cc(S(=O)(=O)N2CCCCC2)ccc1N1CCOCC1 (stereo not drawn),active: 10.4 µM,
CCCCNc1c(-c2ccc(OC)c(SC3CCCCC3)c2)nc2cc(C)ccn12,"inconclusive: 14.7 µM [inhibitor, partial curve, poor fit]",
CC(NCc1ccccc1Cl)C(=O)Nc1ccc(S(=O)(=O)N2CCCC2)cc1 (stereo not drawn),"inconclusive: 18.5 µM [inhibitor, single point]",
Cc1ccc(C)c(Cn2nnc3c(=O)[nH]c(C(=O)Nc4ccc(F)cc4)nc32)c1,"inconclusive: 2.08 µM [inhibitor, partial curve, poor fit]",
COC(=O)C1=CN(Cc2ccc(OC)c(OC)c2)C=C(C(=O)OC)C1c1cccc(OC)c1OC,"inconclusive: 18.5 µM [inhibitor, single point]",
COc1cc(/C=N/NC(=O)C2C3CCCCC32C)cc(Br)c1O (stereo not drawn),"inconclusive: 9.28 µM [inhibitor, single point]",
O=C(Cn1nnc(-c2ccc(N3CCOCC3)cc2)n1)OC1CCCCC1,active: 7.38 µM,
CC1CCCC(C)N1C(=O)COC(=O)COc1ccccc1C#N (stereo not drawn),,inactive: -0.308%
COc1ccc(Nc2cccc3ccccc23)cc1,"inconclusive: 16.5 µM [inhibitor, single point]",
O=C(COc1cccnc1[N+](=O)[O-])Nc1cccc(S(=O)(=O)N2CCOCC2)c1,,inactive: 9.59%
Cc1occc1-c1nnc(SCCCC(=O)c2ccc(F)cc2)n1C,"inconclusive: 7.38 µM [inhibitor, partial curve, poor fit]",
CCN(CC)c1ccc(N=CN2CCOCC2)cc1,"inconclusive: 5.22 µM [inhibitor, partial curve]",
CCN1C(=O)c2ccccc2Sc2ccc(C(=O)O)cc21,,inactive: 8.31%
Cc1ccccc1NC(=S)N(CCCN1CCOCC1)Cc1cccnc1,"inconclusive: 11.7 µM [inhibitor, partial curve, poor fit]",
CC(CN1CCCCC1)OC(=O)c1cc2ccccc2o1 (stereo not drawn),"inconclusive: 9.28 µM [inhibitor, partial curve, poor fit]",
Cn1cc(/C=N/n2cnc3scc(-c4ccc(Cl)cc4)c3c2=O)c2ccccc21,"inconclusive: 23.3 µM [inhibitor, partial curve, poor fit]",
CCCCN1C(=O)/C(=C(/C#N)C(N)=O)c2ccccc21,"inconclusive: 9.28 µM [inhibitor, single point]",

SMILES,Potency,"activity change, negative = inhibition"
CC(C)(C)C(=O)Cn1c(=O)n(-c2ccc(F)cc2F)c(=O)c2sccc21,"inconclusive: 1.17 µM [inhibitor, partial curve, poor fit]",
CN1/C(=C/C(=S)NC(=O)C2(C)CC2(Cl)Cl)C(C)(C)c2ccccc21 (stereo not drawn),"inconclusive: 9.28 µM [inhibitor, single point]",
COC(=O)[C@]1(CC(C)C)N[C@H](c2ccc(-c3ccc4c(c3)OCO4)cc2)[C@@H]2C(=O)N(C)C(=O)[C@@H]21,active: 13.1 µM,
CC(NC(=O)c1ccccc1Cl)NC(=O)c1ccccc1Cl,,inactive: 10.3%
Cc1cccc(Nc2nnc(SCC(=O)c3ccc(Br)s3)s2)c1C,"inconclusive: 10.4 µM [inhibitor, single point]",
COc1cccc(C2=CC(=O)C[C@H](c3ccc(OC)c(OC)c3)C2)c1,"inconclusive: 8.28 µM [inhibitor, partial curve]",
CCOP(=O)(OCC)c1ccc2c(c1)C(=O)c1ccccc1CC2,active: 4.15 µM,
Cc1cccc(N/N=C/c2ccncc2)c1,"inconclusive: 6.57 µM [inhibitor, partial curve, poor fit]",
Cc1cccc(-n2c(-c3cccc([N+](=O)[O-])c3)nc3nc4ccccc4nc32)c1,"inconclusive: 4.15 µM [inhibitor, partial curve, poor fit]",
CC(=O)N(CCCCl)C(C#N)c1ccccc1 (stereo not drawn),,inactive: 36.1%
CS(=O)(=O)c1ccc(C(=O)Nc2ccc(S(=O)(=O)N3CCCCC3)cc2)cc1,"inconclusive: 18.5 µM [inhibitor, single point]",
COc1ccc(C(=O)CCN2CCN(c3ccccc3OC)CC2)cc1,"inconclusive: 0.0041 µM [inhibitor, full curve, poor fit]",
CCCOc1cccc(C(=O)N(Cc2ccccc2)C2CCS(=O)(=O)C2)c1 (stereo not drawn),"inconclusive: 2.94 µM [inhibitor, full curve, poor fit]",
COc1cc(/C=C/C(=O)OCC(=O)Nc2cc(S(=O)(=O)N3CCCCC3)ccc2C)ccc1O,"inconclusive: 13.1 µM [inhibitor, partial curve]",
CCS(=O)(=O)c1nn2c(N)c(/C=C3/C=CC(=O)C(OC)=C3)c(=O)nc2s1,"inconclusive: 18.5 µM [inhibitor, single point]",
CN(C)S(=O)(=O)c1ccc(C(=O)Nc2nnc(SCC(=O)NCC3CCCO3)s2)cc1 (stereo not drawn),"inconclusive: 18.5 µM [inhibitor, single point]",
Cc1c(C(c2ccccc2)c2c(C)n(C)n(-c3ccccc3)c2=O)c(=O)n(-c2ccccc2)n1C,"inconclusive: 13.1 µM [inhibitor, partial curve]",
Cc1cc(C)n(-c2nc(SCC(=O)O)c3c4c(sc3n2)COC(C)(C)C4)n1,"inconclusive: 10.4 µM [inhibitor, partial curve, poor fit]",
O=C1CC(NNc2ccccc2)C(=O)N1c1ccc(N2CCCCC2)cc1 (stereo not drawn),,inactive: -30.8% [at 1.15 µM]
C=CCn1cc(F)c(=O)n(CC=C)c1=O,"inconclusive: 13.1 µM [inhibitor, single point]",
O=C(Nc1ncccn1)c1cc([N+](=O)[O-])cc([N+](=O)[O-])c1,"inconclusive: 18.5 µM [inhibitor, single point]",
CC(=O)c1cccc(NC(=S)NC(=O)Cc2ccc(Cl)cc2)c1,"inconclusive: 14.7 µM [inhibitor, single point]",
CCOC(=O)N1CCN(C(=O)C2CCC(=O)N(Cc3cccc(C(F)(F)F)c3)C2)CC1 (stereo not drawn),"inconclusive: 11.7 µM [inhibitor, partial curve, poor fit]",

# Record cards, from the list above:
# CCOC(=O)N1CCN(C(=O)C2CCC(=O)N(Cc3cccc(C(F)(F)F)c3)C2)CC1 (stereo not drawn) as listed: Potency: inconclusive: 11.7 µM [inhibitor, partial curve, poor fit]
# Cc1cccc(Nc2nnc(SCC(=O)c3ccc(Br)s3)s2)c1C as listed: Potency: inconclusive: 10.4 µM [inhibitor, single point]
# COC(=O)[C@]1(CC(C)C)N[C@H](c2ccc(-c3ccc4c(c3)OCO4)cc2)[C@@H]2C(=O)N(C)C(=O)[C@@H]21 as listed: Potency: active: 13.1 µM
# C=CCn1cc(F)c(=O)n(CC=C)c1=O as listed: Potency: inconclusive: 13.1 µM [inhibitor, single point]

# Next results follow.

SMILES,Potency,"activity change, negative = inhibition"
CC1Cc2ccccc2N1C(=O)c1cnc2ccccn2c1=O (stereo not drawn),"inconclusive: 11.7 µM [inhibitor, single point]",
Cc1cccnc1NC(=S)Nc1ncccc1C,,inactive: 368%
CN1CCN(C(=O)c2ccccc2NC(=O)COc2ccccc2Cl)CC1,,inactive: -4.76%
Cc1ccccc1CNc1ccc(C(CC(N)=O)NC(=O)c2ccccc2)cc1[N+](=O)[O-] (stereo not drawn),"inconclusive: 5.22 µM [inhibitor, partial curve]",
CCOc1c(C)cc(-c2ncccc2O)cc1C,"inconclusive: 10.4 µM [inhibitor, single point] and inconclusive: 928 nM [inhibitor, partial curve, poor fit]",
Cc1c(N)cccc1N,"inconclusive: 2.62 µM [inhibitor, single point]",
CCOC(=O)C1(CCOc2ccccc2)CCN(Cc2ccc(OC)c(O)c2)CC1,,inactive: -24%
Cc1ccc(/C=C/S(=O)(=O)NCC(=O)OCC(=O)N2CC(=O)Nc3ccccc32)cc1,,inactive: -0.754%
CC1CC(C)CN(C(=O)CCNC(=O)Cn2ccc3ccccc3c2=O)C1 (stereo not drawn),"inconclusive: 9.28 µM [inhibitor, partial curve]",
CC1CCN(S(=O)(=O)c2ccc(C(=O)N3CCN(c4ccccc4F)CC3)cc2)CC1,,inactive: -30%
O=[N+]([O-])c1cc(S(=O)(=O)NCCN2CCOCC2)ccc1Cl,,inactive: -21.2%
O=C(NCc1ccco1)Nc1ccc2snnc2c1,,inactive: -2.64%
CCOC(=O)C1CCCN(CC(=O)c2ccc(F)cc2)C1 (stereo not drawn),,inactive: 12.3%
CCC(=O)Nc1ccc(C(=O)NNC(=O)c2ccc(C)cc2)cc1,,inactive: -21.6%
Cc1ccc(C2CC(c3cccs3)=NN2S(=O)(=O)c2ccc(C)cc2)cc1 (stereo not drawn),active: 2.94 µM,
CCCCOP(=O)(OCCCC)C(O)c1ccc(N(C)C)cc1 (stereo not drawn),,inactive: 19.6%
CCCCC(=O)NNC(=S)NC(=O)CCC,"inconclusive: 7.38 µM [inhibitor, partial curve, poor fit]",
CC(=O)N1CCN(c2ccc(NC(=O)c3ccccc3C)cc2)CC1,,inactive: -4.45%
COc1ccc(N2CCN(C(=O)C(=O)c3c(C)[nH]c4ccccc34)CC2)cc1,"inconclusive: 18.5 µM [inhibitor, single point]",
Cc1nnc(-n2ncc(C#N)c2N)c2nn(-c3cccc(Cl)c3)c(C)c12,"inconclusive: 18.5 µM [inhibitor, single point]",
CC(=O)c1ccccc1OCCOc1ncnc2sccc12,"inconclusive: 10.4 µM [inhibitor, single point]",
COc1ccc(N=C(C)C2=C(O)c3ccccc3C2=O)cc1,,inactive: 65.2%
